Data on 2 substances can be found in PMC12274967.

Amino acid sequences for entries named in this document (tags omitted).
UniProt Q92560: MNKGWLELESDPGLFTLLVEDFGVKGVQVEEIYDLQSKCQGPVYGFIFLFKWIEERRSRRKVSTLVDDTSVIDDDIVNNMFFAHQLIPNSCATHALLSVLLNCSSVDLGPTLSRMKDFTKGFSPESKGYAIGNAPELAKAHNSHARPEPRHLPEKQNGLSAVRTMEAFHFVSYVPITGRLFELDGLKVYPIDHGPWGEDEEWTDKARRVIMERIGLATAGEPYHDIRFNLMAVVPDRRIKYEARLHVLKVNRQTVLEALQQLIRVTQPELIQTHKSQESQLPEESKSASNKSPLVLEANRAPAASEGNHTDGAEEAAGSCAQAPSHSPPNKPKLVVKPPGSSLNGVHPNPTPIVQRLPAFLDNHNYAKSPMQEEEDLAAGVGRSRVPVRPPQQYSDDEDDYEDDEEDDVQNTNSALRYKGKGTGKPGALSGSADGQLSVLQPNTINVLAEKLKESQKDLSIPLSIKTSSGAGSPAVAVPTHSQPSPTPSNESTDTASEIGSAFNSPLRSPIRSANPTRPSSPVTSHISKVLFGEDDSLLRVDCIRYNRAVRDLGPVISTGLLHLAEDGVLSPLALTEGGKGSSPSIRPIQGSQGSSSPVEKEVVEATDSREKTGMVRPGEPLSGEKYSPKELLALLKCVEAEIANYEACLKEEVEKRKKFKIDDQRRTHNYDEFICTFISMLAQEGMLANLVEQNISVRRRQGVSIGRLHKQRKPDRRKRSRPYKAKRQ
UniProt P25490: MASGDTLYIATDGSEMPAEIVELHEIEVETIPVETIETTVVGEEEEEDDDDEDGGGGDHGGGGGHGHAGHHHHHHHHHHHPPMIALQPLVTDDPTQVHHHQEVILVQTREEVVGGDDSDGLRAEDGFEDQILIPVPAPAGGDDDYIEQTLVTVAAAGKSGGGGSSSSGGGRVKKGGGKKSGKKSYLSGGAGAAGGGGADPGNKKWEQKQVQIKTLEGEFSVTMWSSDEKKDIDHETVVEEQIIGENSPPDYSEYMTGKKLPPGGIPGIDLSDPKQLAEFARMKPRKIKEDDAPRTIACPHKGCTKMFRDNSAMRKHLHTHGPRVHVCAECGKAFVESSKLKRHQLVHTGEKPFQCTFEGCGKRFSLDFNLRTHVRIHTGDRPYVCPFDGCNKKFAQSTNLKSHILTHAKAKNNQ
UniProt P04406: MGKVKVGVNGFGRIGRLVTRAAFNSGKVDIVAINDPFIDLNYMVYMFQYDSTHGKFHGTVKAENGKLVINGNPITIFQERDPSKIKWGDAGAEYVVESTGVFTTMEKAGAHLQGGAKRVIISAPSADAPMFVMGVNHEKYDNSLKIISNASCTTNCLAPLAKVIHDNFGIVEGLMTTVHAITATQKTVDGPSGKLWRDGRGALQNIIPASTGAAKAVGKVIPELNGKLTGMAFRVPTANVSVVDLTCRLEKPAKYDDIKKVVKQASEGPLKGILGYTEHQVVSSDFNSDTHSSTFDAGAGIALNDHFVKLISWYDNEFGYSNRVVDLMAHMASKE

This test addresses BRCA1-associated protein 1 (human (endogenous in 786-O)) (UniProt Q92560). In words: co-IP; 786-O cell lysate (IP buffer with Tris, NaCl, EDTA, NP-40, glycerin, pH 7.4); endogenous BAP1 precipitated with agarose-cross-linked mouse anti-human BAP1 monoclonal antibody, 4°C overnight, normal mouse IgG as control; washed with TBS; Western blot of the precipitate. (A western blot detects proteins with antibodies after separation by electrophoresis.)

These are yes or no findings as the source states them, for the method shown. Binding seen in cells or lysates may run through a third protein. Some entries that bind do so weakly or less than the wild type.

As to YY1 (from UniProt P25490 1-414), the binding result is on record as “binds”. As to “glyceraldehyde-3-phosphate dehydrogenase (from UniProt P04406 1-335)”, the binding entry was “no binding”.
